At least one compound was matched to its structure with a doubt left.
Legend:
[1] = system: ligand binding domain of human RXR; test: GST pull-down of [35S] labelled SRC-1 by GST-RXR ligand binding domain; details: GST-RXR LBD on glutathione-sepharose beads, DHA at varying concentrations, overnight, SDS-PAGE/fluorography
GAL4-Nurr1/RXR = GAL4-Nurr1/RXR (Homo sapiens, UniProt P19793); test: GAL4-Nurr1/RXR UAS-luciferase reporter assay in transfected JEG-3 cells; format: cell-based; details: 20 uM of individual polyunsaturated fatty acid; cells cotransfected with GAL4-Nurr1 and RXR

Protein sequences, listed by entry. Tags and fused reporters are not part of them. Lines headed by an entry give the natural chain unless they say otherwise; changes in a name come on top.
UniProt P19793: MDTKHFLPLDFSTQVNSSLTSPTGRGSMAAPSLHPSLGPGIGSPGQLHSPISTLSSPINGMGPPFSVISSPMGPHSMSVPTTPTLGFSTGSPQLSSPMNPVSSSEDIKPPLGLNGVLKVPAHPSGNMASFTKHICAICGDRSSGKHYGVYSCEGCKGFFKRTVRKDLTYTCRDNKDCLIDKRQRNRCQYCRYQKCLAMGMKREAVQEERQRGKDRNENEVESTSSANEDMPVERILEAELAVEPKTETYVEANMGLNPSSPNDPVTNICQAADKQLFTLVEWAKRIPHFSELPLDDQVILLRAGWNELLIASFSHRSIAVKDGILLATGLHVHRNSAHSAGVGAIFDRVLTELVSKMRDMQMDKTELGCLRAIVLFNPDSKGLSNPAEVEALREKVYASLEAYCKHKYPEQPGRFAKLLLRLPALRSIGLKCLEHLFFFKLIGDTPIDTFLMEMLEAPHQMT

## CC/C=C\C/C=C\C/C=C\C/C=C\C/C=C\C/C=C\CCC(=O)O [DHA, docosahexaenoic acid]
[1]
  association of RXR ligand binding domain with [35S] methionine labelled SRC-1: associated efficiently
GAL4-Nurr1/RXR
  activation of reporter genes: robust activiation

— US6355446B1 (Ludwig Institute for Cancer Research, priority 2000, dated 2002)
